Laboratory results reported in the supplement of paper PMC6411743.
± gives the standard deviation of the averaged measurements. The list shows a part of the results, in another mix than the full data. Most values lie at the level of the controls, where differences are scatter.

Protein sequences, listed by entry. Tags and fused reporters are not part of them. Lines headed by an entry give the natural chain unless they say otherwise; changes in a name come on top.
UniProt Q5TFE4: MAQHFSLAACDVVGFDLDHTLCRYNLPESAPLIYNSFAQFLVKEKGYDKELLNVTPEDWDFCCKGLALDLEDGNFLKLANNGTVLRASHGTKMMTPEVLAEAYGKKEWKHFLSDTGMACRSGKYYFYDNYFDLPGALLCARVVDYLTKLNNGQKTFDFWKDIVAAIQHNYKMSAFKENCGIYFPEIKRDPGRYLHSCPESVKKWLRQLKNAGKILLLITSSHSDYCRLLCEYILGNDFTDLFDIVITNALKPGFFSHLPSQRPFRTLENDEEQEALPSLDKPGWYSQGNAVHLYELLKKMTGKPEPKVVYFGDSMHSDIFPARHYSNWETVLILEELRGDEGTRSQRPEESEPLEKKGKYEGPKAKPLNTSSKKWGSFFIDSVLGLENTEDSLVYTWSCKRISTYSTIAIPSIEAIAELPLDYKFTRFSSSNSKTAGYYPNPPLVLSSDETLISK
UniProt Q16204: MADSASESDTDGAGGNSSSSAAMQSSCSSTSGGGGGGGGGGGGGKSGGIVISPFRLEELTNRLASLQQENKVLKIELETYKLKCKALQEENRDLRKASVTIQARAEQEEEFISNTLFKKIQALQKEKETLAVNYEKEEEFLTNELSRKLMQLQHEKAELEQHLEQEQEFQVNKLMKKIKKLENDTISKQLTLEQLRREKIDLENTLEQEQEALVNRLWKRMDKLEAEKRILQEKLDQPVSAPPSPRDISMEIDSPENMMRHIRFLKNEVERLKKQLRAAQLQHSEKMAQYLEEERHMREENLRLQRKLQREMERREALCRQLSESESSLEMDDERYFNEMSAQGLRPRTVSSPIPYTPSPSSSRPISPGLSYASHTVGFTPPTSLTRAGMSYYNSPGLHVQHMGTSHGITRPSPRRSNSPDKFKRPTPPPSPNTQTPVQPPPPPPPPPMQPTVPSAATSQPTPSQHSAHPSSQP
UniProt Q15388, whole entry: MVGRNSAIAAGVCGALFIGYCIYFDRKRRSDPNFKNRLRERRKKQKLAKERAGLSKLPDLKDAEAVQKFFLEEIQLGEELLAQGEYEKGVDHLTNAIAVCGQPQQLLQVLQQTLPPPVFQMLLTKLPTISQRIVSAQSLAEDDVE
UniProt Q3MIT2: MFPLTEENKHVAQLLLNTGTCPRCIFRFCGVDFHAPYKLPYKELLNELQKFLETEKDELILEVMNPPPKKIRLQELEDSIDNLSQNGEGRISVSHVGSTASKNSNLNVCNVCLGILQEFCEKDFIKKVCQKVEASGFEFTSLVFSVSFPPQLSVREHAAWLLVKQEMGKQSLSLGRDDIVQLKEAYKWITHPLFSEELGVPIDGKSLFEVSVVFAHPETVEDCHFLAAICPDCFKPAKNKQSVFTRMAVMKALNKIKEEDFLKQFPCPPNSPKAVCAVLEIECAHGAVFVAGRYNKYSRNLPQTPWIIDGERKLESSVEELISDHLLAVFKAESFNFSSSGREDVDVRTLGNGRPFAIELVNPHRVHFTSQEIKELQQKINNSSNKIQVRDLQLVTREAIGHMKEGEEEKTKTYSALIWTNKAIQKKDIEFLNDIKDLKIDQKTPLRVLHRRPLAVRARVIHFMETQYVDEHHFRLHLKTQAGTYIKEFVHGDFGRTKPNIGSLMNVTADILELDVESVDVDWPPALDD
UniProt Q15773: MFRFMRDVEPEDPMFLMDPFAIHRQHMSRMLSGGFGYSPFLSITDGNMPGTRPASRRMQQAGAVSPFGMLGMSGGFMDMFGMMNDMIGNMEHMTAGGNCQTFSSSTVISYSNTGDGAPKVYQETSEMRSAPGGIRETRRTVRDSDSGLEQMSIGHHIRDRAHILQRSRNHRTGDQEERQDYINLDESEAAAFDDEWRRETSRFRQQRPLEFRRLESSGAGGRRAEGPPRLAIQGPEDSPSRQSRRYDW
UniProt Q15836, whole entry: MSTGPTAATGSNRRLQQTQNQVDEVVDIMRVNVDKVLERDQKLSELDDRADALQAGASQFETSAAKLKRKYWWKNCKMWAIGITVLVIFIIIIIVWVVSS
UniProt Q53GL0, whole entry: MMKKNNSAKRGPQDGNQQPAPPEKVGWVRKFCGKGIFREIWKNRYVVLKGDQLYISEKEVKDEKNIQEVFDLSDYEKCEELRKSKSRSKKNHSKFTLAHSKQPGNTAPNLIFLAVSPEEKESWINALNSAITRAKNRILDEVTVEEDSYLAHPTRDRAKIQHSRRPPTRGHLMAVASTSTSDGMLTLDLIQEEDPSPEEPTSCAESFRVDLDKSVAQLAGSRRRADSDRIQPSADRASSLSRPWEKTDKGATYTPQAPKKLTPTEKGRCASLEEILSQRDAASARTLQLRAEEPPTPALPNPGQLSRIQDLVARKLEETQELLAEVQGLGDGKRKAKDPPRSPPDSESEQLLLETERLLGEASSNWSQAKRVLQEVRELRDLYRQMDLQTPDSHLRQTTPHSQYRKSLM
UniProt Q16851: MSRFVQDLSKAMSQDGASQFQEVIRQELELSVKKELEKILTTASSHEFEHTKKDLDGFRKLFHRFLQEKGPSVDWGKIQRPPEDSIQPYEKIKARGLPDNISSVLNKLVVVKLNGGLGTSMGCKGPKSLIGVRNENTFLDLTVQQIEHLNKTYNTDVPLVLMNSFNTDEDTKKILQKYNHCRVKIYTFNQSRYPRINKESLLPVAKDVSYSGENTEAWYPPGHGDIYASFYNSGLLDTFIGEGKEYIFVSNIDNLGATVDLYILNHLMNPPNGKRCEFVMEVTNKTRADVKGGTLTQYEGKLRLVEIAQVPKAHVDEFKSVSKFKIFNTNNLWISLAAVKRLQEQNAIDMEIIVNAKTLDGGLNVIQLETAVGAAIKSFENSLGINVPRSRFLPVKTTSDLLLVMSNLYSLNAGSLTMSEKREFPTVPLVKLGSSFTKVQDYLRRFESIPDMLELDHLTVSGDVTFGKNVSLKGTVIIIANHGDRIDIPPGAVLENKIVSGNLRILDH
UniProt Q15363: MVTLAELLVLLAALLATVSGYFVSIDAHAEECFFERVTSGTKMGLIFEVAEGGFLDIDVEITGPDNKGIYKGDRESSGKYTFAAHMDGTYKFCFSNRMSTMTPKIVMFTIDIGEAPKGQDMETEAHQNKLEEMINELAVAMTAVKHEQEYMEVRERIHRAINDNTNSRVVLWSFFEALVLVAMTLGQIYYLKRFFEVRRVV
UniProt Q53EZ4: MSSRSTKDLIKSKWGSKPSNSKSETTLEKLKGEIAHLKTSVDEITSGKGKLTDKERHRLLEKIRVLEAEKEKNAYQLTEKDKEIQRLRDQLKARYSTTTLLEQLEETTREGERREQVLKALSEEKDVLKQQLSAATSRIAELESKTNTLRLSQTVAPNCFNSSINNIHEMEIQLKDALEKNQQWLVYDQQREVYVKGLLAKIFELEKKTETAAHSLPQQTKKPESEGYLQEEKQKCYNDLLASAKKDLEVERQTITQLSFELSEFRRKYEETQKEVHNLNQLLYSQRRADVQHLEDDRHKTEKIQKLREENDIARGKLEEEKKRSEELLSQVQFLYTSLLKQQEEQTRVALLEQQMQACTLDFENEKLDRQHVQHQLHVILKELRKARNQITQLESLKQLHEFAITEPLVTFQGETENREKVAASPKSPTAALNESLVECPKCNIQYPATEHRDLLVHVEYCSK
UniProt Q53GQ0: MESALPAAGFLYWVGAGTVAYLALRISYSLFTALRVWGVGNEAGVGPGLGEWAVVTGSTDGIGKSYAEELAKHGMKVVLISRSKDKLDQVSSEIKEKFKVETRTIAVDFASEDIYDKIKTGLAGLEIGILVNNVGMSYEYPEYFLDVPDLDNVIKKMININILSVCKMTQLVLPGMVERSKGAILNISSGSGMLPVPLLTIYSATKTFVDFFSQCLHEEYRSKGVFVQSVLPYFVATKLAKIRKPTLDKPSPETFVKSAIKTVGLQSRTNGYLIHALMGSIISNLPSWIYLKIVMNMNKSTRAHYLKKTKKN
UniProt Q5SSJ5: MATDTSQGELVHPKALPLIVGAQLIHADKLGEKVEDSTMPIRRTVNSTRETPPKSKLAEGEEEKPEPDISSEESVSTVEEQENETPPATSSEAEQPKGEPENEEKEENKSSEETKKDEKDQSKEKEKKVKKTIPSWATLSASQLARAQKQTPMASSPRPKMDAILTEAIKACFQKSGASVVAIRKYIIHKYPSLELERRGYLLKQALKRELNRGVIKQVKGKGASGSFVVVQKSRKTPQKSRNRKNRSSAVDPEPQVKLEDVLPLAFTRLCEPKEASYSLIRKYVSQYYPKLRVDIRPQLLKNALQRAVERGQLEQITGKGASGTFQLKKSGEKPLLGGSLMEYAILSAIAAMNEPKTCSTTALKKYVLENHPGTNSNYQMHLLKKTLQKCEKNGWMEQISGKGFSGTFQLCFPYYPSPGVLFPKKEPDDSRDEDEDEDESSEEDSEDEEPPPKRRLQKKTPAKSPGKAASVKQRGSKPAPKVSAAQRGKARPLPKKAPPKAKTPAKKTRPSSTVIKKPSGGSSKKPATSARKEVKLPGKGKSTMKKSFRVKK
UniProt Q5U5X0: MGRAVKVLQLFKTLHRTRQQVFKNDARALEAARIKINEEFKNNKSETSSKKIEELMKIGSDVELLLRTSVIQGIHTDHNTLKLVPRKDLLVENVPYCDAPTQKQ
UniProt Q5HYI8: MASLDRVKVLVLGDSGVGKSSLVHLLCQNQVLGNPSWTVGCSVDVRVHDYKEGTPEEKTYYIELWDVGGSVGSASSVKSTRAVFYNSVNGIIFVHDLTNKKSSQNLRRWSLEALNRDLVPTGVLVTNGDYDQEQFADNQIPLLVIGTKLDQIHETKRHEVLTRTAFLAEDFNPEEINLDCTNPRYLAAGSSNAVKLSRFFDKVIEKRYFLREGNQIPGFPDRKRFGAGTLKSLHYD
UniProt Q16666: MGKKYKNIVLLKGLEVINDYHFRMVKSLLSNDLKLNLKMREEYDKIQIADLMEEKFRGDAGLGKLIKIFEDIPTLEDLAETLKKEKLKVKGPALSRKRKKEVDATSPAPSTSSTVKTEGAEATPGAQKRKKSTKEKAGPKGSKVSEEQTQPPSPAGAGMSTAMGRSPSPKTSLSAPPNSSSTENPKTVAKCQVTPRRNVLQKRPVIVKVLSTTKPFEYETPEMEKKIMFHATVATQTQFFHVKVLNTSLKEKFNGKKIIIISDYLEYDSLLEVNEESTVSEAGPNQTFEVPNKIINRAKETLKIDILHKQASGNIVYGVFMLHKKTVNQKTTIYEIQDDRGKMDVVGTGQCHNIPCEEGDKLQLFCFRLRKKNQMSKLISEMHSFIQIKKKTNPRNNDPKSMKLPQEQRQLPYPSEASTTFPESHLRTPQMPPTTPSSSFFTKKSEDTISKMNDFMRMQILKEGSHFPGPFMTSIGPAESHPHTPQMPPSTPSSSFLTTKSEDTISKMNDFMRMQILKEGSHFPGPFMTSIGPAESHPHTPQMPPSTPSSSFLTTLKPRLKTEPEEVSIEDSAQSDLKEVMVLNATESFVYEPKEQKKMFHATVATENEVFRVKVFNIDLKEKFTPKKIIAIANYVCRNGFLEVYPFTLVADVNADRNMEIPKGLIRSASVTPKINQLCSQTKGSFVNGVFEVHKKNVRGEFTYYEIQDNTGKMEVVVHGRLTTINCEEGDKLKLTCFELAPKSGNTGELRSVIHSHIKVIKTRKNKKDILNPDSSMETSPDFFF
UniProt Q16795, whole entry: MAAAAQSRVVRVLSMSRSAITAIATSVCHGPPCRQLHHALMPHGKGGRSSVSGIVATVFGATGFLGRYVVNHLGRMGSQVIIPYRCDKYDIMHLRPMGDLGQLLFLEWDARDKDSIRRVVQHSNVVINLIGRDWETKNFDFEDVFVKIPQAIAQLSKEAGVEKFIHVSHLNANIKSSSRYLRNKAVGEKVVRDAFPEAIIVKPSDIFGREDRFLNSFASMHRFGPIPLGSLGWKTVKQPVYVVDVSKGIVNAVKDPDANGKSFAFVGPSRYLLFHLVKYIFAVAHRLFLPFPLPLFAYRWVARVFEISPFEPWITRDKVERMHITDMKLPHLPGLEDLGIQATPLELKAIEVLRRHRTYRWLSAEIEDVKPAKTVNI
UniProt Q5TG30: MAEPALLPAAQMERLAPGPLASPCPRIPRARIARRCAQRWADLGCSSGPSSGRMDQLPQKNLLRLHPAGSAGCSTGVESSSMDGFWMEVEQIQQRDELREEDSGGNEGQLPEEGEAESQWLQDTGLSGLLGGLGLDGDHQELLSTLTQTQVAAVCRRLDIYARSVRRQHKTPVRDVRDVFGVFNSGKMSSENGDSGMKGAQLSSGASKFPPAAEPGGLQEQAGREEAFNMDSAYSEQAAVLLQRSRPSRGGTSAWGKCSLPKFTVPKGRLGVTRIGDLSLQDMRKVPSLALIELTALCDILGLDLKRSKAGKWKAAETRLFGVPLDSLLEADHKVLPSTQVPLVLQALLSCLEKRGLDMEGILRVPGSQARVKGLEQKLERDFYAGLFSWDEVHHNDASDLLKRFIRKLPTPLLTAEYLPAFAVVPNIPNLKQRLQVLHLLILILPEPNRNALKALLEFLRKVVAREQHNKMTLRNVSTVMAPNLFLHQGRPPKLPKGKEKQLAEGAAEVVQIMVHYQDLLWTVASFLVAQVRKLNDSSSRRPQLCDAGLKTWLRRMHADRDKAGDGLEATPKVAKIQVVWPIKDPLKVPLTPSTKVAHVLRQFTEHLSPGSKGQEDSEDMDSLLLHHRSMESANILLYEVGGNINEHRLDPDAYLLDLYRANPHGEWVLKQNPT

Compound: Nc1ncnc2c1ncn2[C@@H]1O[C@H](COP(=O)(O)OP(=O)(O)NP(=O)(O)O)[C@@H](O)[C@H]1O [adenylyl imidodiphosphate]
Assay: NP40-soluble protein abundance relative to vehicle (solubility fold change) (ratio); higher = more soluble protein in presence of AMP-PNP
Outline: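 Values are fold changes against the detergent-processed vehicle, based on vsn-normalised intensities. Jurkat crude lysate was treated at eight concentrations from 0.1 to 10 mM (10 min at room temperature, then 3 min at 37 °C), solubilised with 0.8% NP40 and benzonase, ultracentrifuged and analysed by TMT-labelled LC-MS/MS over three independent experiments.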

Target	NP40-soluble protein abundance (concentration: 0.1mM)	NP40-soluble protein abundance (concentration: 0.5mM)
RHEB (UniProt Q15382)	0.973 ± 0.013	1.02 ± 0.011
NT5DC1 (UniProt Q5TFE4)	1 ± 0.018	1 ± 0.046
CCDC6 (UniProt Q16204)	0.977 ± 0.011	1.01 ± 0.051
Q5T063 and related entries (UniProt Q9NZJ6)	0.9827 ± 0.0086	1.01 ± 0.014
TOR2A (UniProt Q5JU69)	0.994 ± 0.011	1.02 ± 0.025
UniProt Q4VC05 and related entries	1.03 ± 0.03	1.04 ± 0.049
HNRNPUL2 (UniProt Q1KMD3)	1.03 ± 0.054	1 ± 0.08
UniProt Q2TAY7	1.03 ± 0.063	1.03 ± 0.081
TOMM20 (UniProt Q15388)	0.991 ± 0.041	1.06 ± 0.13
UniProt Q5T0B9	0.989 ± 0.02	1.01 ± 0.04
UniProt Q5JSZ5	1.03 ± 0.044	1.02 ± 0.026
UniProt Q15777 and related entries	0.997 ± 0.027	0.99 ± 0.041
UniProt Q16698-2|Q16698	1.03 ± 0.032	1.01 ± 0.062
UniProt Q5SWX8	0.996 ± 0.03	1 ± 0.021
UniProt Q3V6T2 and related entries	1.01 ± 0.022	0.982 ± 0.043
PUS10 (UniProt Q3MIT2)	1.01 ± 0.015	0.987 ± 0.036
MLF2 (UniProt Q15773)	1 ± 0.057	0.947 ± 0.027
CROCC (UniProt Q5TZA2)	0.977 ± 0.012	0.979 ± 0.032
VAMP3 (UniProt Q15836)	1 ± 0.011	1.002 ± 0.0087
UniProt Q4ADV7 and related entries	0.959 ± 0.038	0.9731 ± 0.0081

Taken from above:
Value of UniProt Q15777 and related entries under NP40-soluble protein abundance (concentration: 0.5mM): 0.99 ± 0.041
Value of Q5T063 and related entries (UniProt Q9NZJ6) under NP40-soluble protein abundance (concentration: 0.5mM): 1.01 ± 0.014

Continuation.

Target	NP40-soluble protein abundance (concentration: 0.1mM)	NP40-soluble protein abundance (concentration: 0.5mM)
ACSF3 (UniProt Q4G176)	1.02 ± 0.042	0.998 ± 0.1
UniProt Q15398-3|Q15398	0.982 ± 0.017	0.979 ± 0.034
UniProt Q16539 and related entries	1.04 ± 0.034	1.03 ± 0.063
UniProt Q53GL0	0.999 ± 0.041	1.03 ± 0.059
UniProt Q16851 and related entries	1.02 ± 0.03	1 ± 0.053
UniProt Q5H8A4-5	0.999 ± 0.011	0.98 ± 0.019
TMED2 (UniProt Q15363)	0.997 ± 0.066	0.992 ± 0.13
CEP55 (UniProt Q53EZ4)	0.969 ± 0.027	0.991 ± 0.045
UniProt Q53EL6 and related entries	1.03 ± 0.048	1.07 ± 0.056
UniProt Q15555 and related entries	0.991 ± 0.021	1.02 ± 0.065
UniProt Q15121 and related entries	0.994 ± 0.029	1 ± 0.011
Q5TBM3 and related entries (UniProt Q92598)	0.978 ± 0.023	1.02 ± 0.052
HSD17B12 (UniProt Q53GQ0)	1 ± 0.042	1.01 ± 0.074
UniProt Q15723 and related entries	0.985 ± 0.016	0.98 ± 0.058
UniProt Q53HC0 and related entries	0.978 ± 0.013	0.964 ± 0.026
VPS26B (UniProt Q4G0F5)	1.02 ± 0.068	0.954 ± 0.14
HECTD3 (UniProt Q5T447)	0.993 ± 0.01	0.963 ± 0.052
MEX3C (UniProt Q5U5Q3)	0.9933 ± 0.0067	1 ± 0.021
HP1BP3 (UniProt Q5SSJ5)	0.992 ± 0.039	0.99 ± 0.042
Q5T1J5 and related entries (UniProt Q9Y6H1+Q5T1J5)	1.06 ± 0.027	1.02 ± 0.048

Target	NP40-soluble protein abundance (concentration: 0.1mM)	NP40-soluble protein abundance (concentration: 0.5mM)
LYRM7 (UniProt Q5U5X0)	0.981 ± 0.013	1.03 ± 0.068
ZNF800 (UniProt Q2TB10)	1 ± 0.015	1.04 ± 0.015
Q5STZ8 and related entries (UniProt Q8NE71)	1 ± 0.018	0.994 ± 0.0085
UniProt Q16401 and related entries	1.05 ± 0.041	1.03 ± 0.052
RABL3 (UniProt Q5HYI8)	1.02 ± 0.012	1.01 ± 0.017
UniProt Q15390 and related entries	0.999 ± 0.022	0.983 ± 0.034
UniProt Q2T9J0 and related entries	1.01 ± 0.014	1.01 ± 0.037
TAF9 (UniProt Q16594)	0.984 ± 0.023	1.02 ± 0.0083
GNPTAB (UniProt Q3T906)	1.02 ± 0.029	1.04 ± 0.031
UniProt Q58A45 and related entries	1.01 ± 0.043	1.01 ± 0.049
UniProt Q5THK1 and related entries	0.998 ± 0.0075	0.976 ± 0.037
PMVK (UniProt Q15126)	0.999 ± 0.022	0.988 ± 0.036
TP53I3 (UniProt Q53FA7)	0.967 ± 0.01	1.01 ± 0.033
QPRT (UniProt Q15274)	0.98 ± 0.015	0.974 ± 0.042
E2F4 (UniProt Q16254)	0.976 ± 0.027	0.974 ± 0.037
MED1 (UniProt Q15648)	1.02 ± 0.014	1.02 ± 0.025
UniProt Q3T8J9 and related entries	0.982 ± 0.042	0.98 ± 0.019
UniProt Q16666 and related entries	1 ± 0.022	1.05 ± 0.039
NDUFA9 (UniProt Q16795)	1.029 ± 0.0085	0.957 ± 0.12
UniProt Q5TG30	1.07 ± 0.015	0.985 ± 0.043
